Assay results taken from PubChem BioAssay AID1307 (SRMLSC, 2008).
The campaign covered roughly 1,200 compounds. Fewer than 10 were called active.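 Rule for the calls: active = inhibition reaching a set limit at one or more tested concentrations; inactive = inhibition under that limit at every dose.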 The list shows a part of the results. Entries with a potency or affinity are not part of this list.

Assay: yeast RAM network inhibitors, dose response, S. cerevisiae (AID 1307);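 note: 0% = DMSO vehicle wells and 100% = 10 µM 1-NA-PP1 control; higher inhibition means more yeast growth since RAM block rescues cells from 5-FOA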
Settings: S. cerevisiae RAM network URA3 reporter, 5-FOA growth OD615, active compounds read high, yeast express analog-sensitive mutant Cbk1 kinase; at 100 µM unless noted

Max inhibition, inactive:
[2H]c1c([2H])c([2H])c(-c2nc(N3CCCCCC3)sc2C(=O)c2ccccc2)c([2H])c1[2H] 3.34% [at 1.563 µM], Cc1ccc(CN2CCSc3ccc(C(=O)NCc4ccco4)cc32)cc1 2.83% [at 0.391 µM], CC1(C)CC(C(CCN(Cc2ccccc2)C(=O)c2ccco2)c2ccc(F)cc2)CCO1 (stereo not drawn) 4.56% [at 50 µM], O=C(COC(=O)CCN1C(=O)/C(=C\C=C\c2ccccc2)SC1=S)Nc1ccc(Br)cc1 9.41%, CCc1oc2ccccc2c1C(=O)c1cc(Br)c(O)c(Br)c1 2.23% [at 0.782 µM], COc1cccc(NC(=O)C2CC(=O)N(C)C(=Nc3cccc(F)c3)S2)c1 (stereo not drawn) 3.67% [at 1.563 µM], C/C=C(/C)C(=O)O[C@@H]1c2c(ccc3ccc(=O)oc23)O[C@@H]1C(C)(C)OC(=O)/C(C)=C\C 2.13%, Cn1cccc1C(=O)OCc1cc(Cl)cc2c1OCOC2 1.77% [at 0.391 µM], CCOC(=O)c1sc(-c2ccccc2)cc1NC(=O)c1ccc(S(=O)(=O)N(CCOC)CCOC)cc1 1.69% [at 12.5 µM], Cc1ccccc1OCC(=O)OCC(=O)c1ccc(OC(=O)c2ccccc2)cc1 5.18%, C=CCSc1nc2ccccc2c2nc(-c3ccccc3)nn12 2.08% [at 1.563 µM], O=C(OC(C(=O)Nc1cccc(C(F)(F)F)c1)c1ccccc1)C1CCCCC1 (stereo not drawn) 3.65% [at 50 µM], Cn1c(=O)c(/C=C/c2ccc(F)cc2)nc2ccccc21 2.52% [at 50 µM], O=C(NC(=S)Nc1ccc(Oc2ccc(Cl)cc2)cc1)c1ccccc1 3.06%, O=C(Nc1ccc2c(c1)OCO2)c1ccc(COc2ccc3c(c2)CCC3)o1 2.54%, CC(C)Cn1c(N)c(-c2nc(C(C)C)c(C(=O)c3ccccc3F)s2)c(=O)n(C)c1=O 7.65%, Cc1ccc(N=c2oc3cc(O)ccc3cc2C(N)=O)cc1 5.31%, N/C(Cc1ccc([N+](=O)[O-])cc1)=N\OC(=O)COc1ccc2ccccc2c1 2.69% [at 0.782 µM], O=S(=O)(c1ccc(F)cc1)n1ccc(-c2cccc(OCc3ccc(Cl)cc3Cl)c2)n1 2.15% [at 6.25 µM], CC(C)C(c1nnnn1Cc1ccccc1)N(Cc1ccco1)Cc1cccs1 (stereo not drawn) 2.96% [at 1.563 µM], CCN(CC)S(=O)(=O)c1cccc(-c2nnc(SCCCC(=O)c3ccccc3)o2)c1 3.65%, Cc1ccc(CS/C(Nc2ccccc2C)=C(\C#N)C(=O)NCc2ccco2)c(C)c1 4.82%, COCCNC(=S)N(CCc1c(C)[nH]c2ccc(F)cc12)Cc1cccs1 3.04%, CCOc1ccc(NS(=O)(=O)c2ccc(NC(=S)NC(=O)CC(C)C)cc2)cc1 3.65% [at 0.196 µM], Cc1ccc(C)c(NC(=O)c2sc(Cl)nc2-c2ccccc2)c1 2.09% [at 1.563 µM], C/C(CC1CC2=C(CC1(C)C)C(C)(C)CCC2)=N\NC(N)=S (stereo not drawn) 2.04% [at 50 µM], CCOC(=O)CC(=O)CSc1nc(N)c(C#N)c(-c2ccc(Cl)cc2)c1C#N 9.01%, Cc1ccc(S(=O)(=O)Cn2nnnc2CN(Cc2ccco2)Cc2cccs2)cc1 2.97% [at 3.125 µM], O=C(COc1cccc(F)c1)N1c2ccccc2Sc2ccccc21 4.94%, COc1ccccc1OCC(=O)N(Cc1nc(-c2ccccc2)no1)C1CCCCC1 1.73%, COc1ccc(S(=O)(=O)Nc2cccc(S(=O)(=O)N3CCCCCC3)c2)cc1 1.86% [at 25 µM], CCN(CC)S(=O)(=O)c1cc(C(=O)OCC(=O)Nc2cccc(Br)c2)ccc1F 2.24%, CON/C=C(\C=Nc1ccc(C(F)(F)F)cc1)c1ncc(C(F)(F)F)cc1Cl 3.78%, c1ccc(-c2nc(CSc3nnnn3-c3ccccc3)cs2)cc1 3.28% [at 50 µM], CCOc1ccc2nc(NC(=O)CSc3nc(-c4ccccc4)c(C#N)c(=O)[nH]3)sc2c1 9.68%, Cc1ccc(S(=O)(=O)c2nc(Nc3ccccc3)sc2Cl)cc1 2.9% [at 25 µM], Cc1ccc(/C=C2\SC(=S)N(C(Cc3ccccc3)C(=O)O)C2=O)cc1 (stereo not drawn) 11.1%, CC(C)=CCc1c2c(c3occ(-c4ccc(O)cc4)c(=O)c3c1O)C=CC(C)(C)O2 4.93% [at 50 µM], COc1ccc(OC)c(-c2csc(NC(=O)CSc3ccccc3)n2)c1 6.24%, CCOC(=O)CC(=O)CSc1nc(-c2ccccc2)cc(-c2ccc(Cl)cc2)c1C#N 2.29% [at 12.5 µM], COc1cccc(/C=C/C(=O)OCC(=O)Nc2cc(C(F)(F)F)ccc2Cl)c1 2.67% [at 50 µM], Cc1cc(C(=O)CSc2ccc(Cl)cc2)cc(C)c1OC(=S)N(C)C 2.89% [at 0.782 µM], C=CCOc1c(Br)cc(CNc2ccc(NC(=O)C(C)C)c(OC)c2)cc1OCC 2.15% [at 3.125 µM], CC(C)OC(=O)/C(C#N)=C/c1cn(Cc2ccccc2)c2ccccc12 6.2% [at 50 µM], COc1ccc(-c2ccc(-c3noc(-c4cccc(OC)c4)n3)c(OC)n2)cc1 4.12%, COc1ccc(/C=C2\SC(=S)N(CC(=O)OCC(=O)Nc3ccc([N+](=O)[O-])cc3OC)C2=O)cc1 8.9%, COc1cccc(C(=O)Oc2ccccc2/C=C\C(=O)c2cc3ccccc3o2)c1 8.08%, O=C(CSc1ccc(Cl)cc1)N1CCN(c2ccc([N+](=O)[O-])cc2Cl)CC1 2.2% [at 25 µM], N#Cc1nc(Cc2cccc3ccccc23)oc1NCc1ccc(F)cc1 3.86% [at 0.782 µM], CCc1ccccc1N1CCN(S(=O)(=O)c2cc(OC)ccc2OC)CC1 2.16% [at 50 µM], C=C(C)COc1ccc(-c2[nH]ncc2Oc2ccccc2OCC)c(O)c1 3.4%, O=C(CSc1ccc(Cl)cc1Cl)N1CCC(c2nc3ccccc3s2)CC1 3.93%, Cc1cccc(NC2=Nc3ccccc3N3C2=Nc2c(c(C)nn2-c2ccccc2)C3c2ccc(O)c(O)c2)c1 (stereo not drawn) 13.2%, O=C(Nc1ccccc1-c1nnc(SCc2ccccc2)o1)c1ccccc1 4.39% [at 3.125 µM], O=C(O)CCCN1C(=O)/C(=C/c2cn(-c3ccccc3)nc2-c2cccs2)SC1=S 5.08%, N#Cc1c(N)nc(SCc2ccccn2)c(C#N)c1-c1cccs1 9.76%, CCN(CC)S(=O)(=O)c1cccc(-c2nnc(SCCOc3ccc(Cl)cc3)o2)c1 1.57% [at 12.5 µM], CCOC(=O)C1=C(CSc2nc(-c3ccccc3)ccc2C#N)OC(N)=C(C#N)C1c1ccc(OC)cc1 (stereo not drawn) 5.85%, Cc1ccccc1N1C(=O)CC1(C#N)c1ccc(OCc2ccccc2)cc1 (stereo not drawn) 3.12% [at 50 µM], Cc1ccc(NC(=O)Cc2ccc(Cl)c(Cl)c2)cc1S(=O)(=O)N(C)C 1.65%, Cc1ccc(-c2cccc(C(=O)NCCc3ccccc3)n2)c2ccccc12 6%, COc1ccc(/C=C/C(=O)OCC(=O)Nc2cccc(Oc3ccccc3)c2)c(OC)c1 5.19%, CCn1c2ccccc2c2cc(NC(=O)c3cc(OC)c(OC)c(OC)c3)ccc21 3.36% [at 50 µM], O=C(/C=C/c1ccc(Br)cc1)N1CCN(c2cccc(C(F)(F)F)c2)CC1 2.05% [at 0.782 µM], CCOCCCNC(=O)/C(C#N)=C/c1ccc(-c2ccc(S(=O)(=O)N3CCOCC3)cc2)o1 2.9% [at 25 µM], CCOc1c(Cl)cc(C(=O)Nc2ccccc2-c2ccccc2)cc1Cl 5.22% [at 0.196 µM], O=S(=O)(Nc1ccc(-c2csc(-c3ccccc3)n2)cc1)c1ccccc1 2.26% [at 6.25 µM], C=CCn1c(SCC)nc2sc3c(c2c1=O)CCc1ccccc1-3 4.76% [at 25 µM], CC1=CC(C)(C)n2c(O)c(N=NC(N)=S)c3cccc1c32 4.85%, CCN1/C(=C/C=C/C=C/c2sc3ccccc3[n+]2CC)Sc2ccccc21 9.29%, FC(F)(F)c1nc(N2CCN(c3ccccc3)CC2)nc2c1CCCCC2 3.63%, COc1ccccc1OCC(=O)Nc1ccc(-c2nnc(-c3ccco3)o2)cc1 5.19%, COc1ccc(-c2nc3ccccc3c(=O)n2CCOc2ccccc2C)cc1 6.26% [at 50 µM], CCCOC(=O)c1ccc(NC(=O)c2c(Cl)ccc(Cl)c2OC)cc1 2.67% [at 25 µM], COc1ccc(OC)c(NC(=O)COC(=O)Cc2ccc(-c3ccccc3)cc2)c1 2.46% [at 0.391 µM], CCCCn1ccnc1C(=O)c1cccc(S(=O)(=O)N2c3ccccc3CC2C)c1 (stereo not drawn) 2.55% [at 50 µM], CCOC(=O)C(=Cc1ccc(OCc2ccc([N+](=O)[O-])cc2)c(OC)c1)C(=O)OCC 3.46%, CCOC(=O)N1CCN(c2nc(-c3cccc(OC)c3)cc(C(F)(F)F)n2)CC1 3.81%
